Record: PubChem BioAssay AID1259308 (NCATS, 2017)
Purpose: 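Candidate targets for better recombinant protein yield in mammalian cells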 (primary screen). System: human HEK293 embryonic kidney cells stably expressing firefly luciferase (HEK-CMV-Luc2-Hygro). Reagents: single siRNA against human genes, 0.8 pmol siRNA per well. Timing: 72 h. Measurement: 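Reporter luminescence and viable-cell signal on separate replicate plates, given as percent of non-targeting control and median/MAD z-scores, plus per-cell luciferase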. Scale: total luciferase, z-score: higher = more reporter protein produced. Call rule: 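Active when the median/MAD z-score for overall luciferase is greater than 3; a gene was taken forward for validation with new siRNAs if at least two of its three siRNAs passed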. Meaning of the calls: active = raised luciferase; inactive = no rise.
Here is a random part of about 59,000 reagents tested. About 1,510 of all reagents (2.6%) count as active. 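Calls use total luciferase alone and ignore viability, so some active siRNAs may act by altering cell number.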 The numbers tell different reagents against one gene apart. Not all columns of the deposit are shown. Reagent sequences are not shown.

total luciferase, z-score, by gene and reagent
ESCO2: #1 -1.36 inactive; #2 -0.471 inactive; #3 1.29 inactive
ARSF: #1 -0.756 inactive; #2 -0.576 inactive; #3 -0.777 inactive
RHBG: #1 -0.958 inactive; #2 0.438 inactive; #3 -0.221 inactive
TDP1: #1 1.02 inactive; #2 0.374 inactive; #3 -1.07 inactive
GPN3: #1 -0.828 inactive; #2 0.136 inactive; #3 -1.21 inactive
MMS19: #1 0.194 inactive; #2 0.477 inactive; #3 -0.0542 inactive
FGF7: #1 -0.704 inactive; #2 -1.65 inactive; #3 2.58 inactive
BPIFC: #1 0.555 inactive; #2 0.393 inactive; #3 0.0016 inactive
CRISPLD1: #1 1.88 inactive; #2 0.986 inactive; #3 -1.12 inactive
ELP3: #1 -1.31 inactive; #2 0.314 inactive; #3 -0.333 inactive
TRRAP: #1 0.799 inactive; #2 1.05 inactive; #3 -0.0899 inactive
TFAP4: #1 -2.29 inactive; #2 -0.424 inactive; #3 -1.37 inactive
LMAN2L: #1 0.816 inactive; #2 -0.195 inactive; #3 0.0849 inactive
SARS2: #1 -0.962 inactive; #2 0.805 inactive; #3 -0.634 inactive
XKRX: #1 -0.831 inactive; #2 -2.05 inactive; #3 3.38 active
FLI1: #1 0.351 inactive; #2 -0.933 inactive; #3 1.24 inactive
SRSF7: #1 1.35 inactive; #2 1.65 inactive; #3 2.2 inactive
CIITA: #1 -0.153 inactive; #2 -0.842 inactive; #3 -0.0734 inactive
FDCSP: #1 -0.0166 inactive; #2 -0.686 inactive; #3 -0.683 inactive
STK38L: #1 1.69 inactive; #2 -0.024 inactive; #3 -0.139 inactive
ABCA10: #1 -1.46 inactive; #2 -1.23 inactive; #3 -1.18 inactive
MCHR2: #1 0.311 inactive; #2 1.6 inactive; #3 -1.72 inactive
APBB3: #1 -1.25 inactive; #2 1.74 inactive; #3 -0.557 inactive
SDCCAG8: #1 2.49 inactive; #2 -0.382 inactive; #3 1.46 inactive
AWAT1: #1 -0.179 inactive; #2 0.664 inactive; #3 -2.13 inactive
